{
  "source": "PubChem BioAssay AID1259415",
  "about": "(National Center for Advancing Translational Sciences (NCATS), 2018)",
  "note": "Out of some 410,000 compounds screened, about 18,000 (4.4%) were called active. Inconclusive means that the source gave no clear call. Such entries were picked first, then a sample of the others. No stated cut-off is given here; in the data, active means activity change below about -60%; inconclusive means no clear call, values can overlap the other calls; inactive means above about -39%. On the % scale 0 is the no-effect control and ±100 the full control effect.",
  "data": [
    {"experiment": "qHTS Assay for inhibitors of the human cytomegalovirus (HCMV)", "conditions": "HFF cells, HCMV-luciferase reporter, 72 h; at 57.5 µM; stronger effect = lower value", "outline": "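Compounds were evaluated in HFFs infected with an HCMV luciferase reporter virus (MOI 1 PFU/cell). Luciferase in lysates collected 72 h post infection served as the replication measure.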", "values": [
      {"compound": "O=C(Nc1ccccc1C(=O)Nc1ccccn1)c1ccc([N+](=O)[O-])cc1", "activity change, negative = inhibition": "inconclusive: -47.2%"},
      {"compound": "Cc1ccccc1/C=N/NC(=O)c1sccc1C", "activity change, negative = inhibition": "inactive: 34.4%"},
      {"compound": "CN(CC(=O)Nc1ccccc1N1CCOCC1)S(=O)(=O)c1ccc(Cl)cc1", "activity change, negative = inhibition": "inconclusive: -44.6%"},
      {"compound": "CN1C(=O)C(C2(O)C(=O)N(Cc3ccccc3)c3cc(Cl)ccc32)c2ccccc21", "note": "(configuration not stated)", "activity change, negative = inhibition": "inconclusive: -41.6%"},
      {"compound": "COc1cc2c(cc1OC)C1=CC(=O)C(=O)N1C(C)(C)C2", "activity change, negative = inhibition": "inconclusive: -46.9%"},
      {"compound": "CCCN(CC1CC1)C(=S)Nc1ccccc1F", "activity change, negative = inhibition": "inconclusive: -48.9%"},
      {"compound": "OC(CN1CCN(c2ncc(C(F)(F)F)cc2Cl)CC1)c1ccccc1", "note": "(configuration not stated)", "activity change, negative = inhibition": "inconclusive: -53.2%"},
      {"compound": "Cc1nnc(NC(=O)CSc2nc3c([nH]c4ccccc43)c(=O)n2-c2ccc(Cl)cc2)s1", "activity change, negative = inhibition": "inactive: -12.9%"},
      {"compound": "Cc1ccc2cc(CN(Cc3nnnn3C3CCCCC3)CC3CCCO3)c(=O)[nH]c2c1", "note": "(configuration not stated)", "activity change, negative = inhibition": "inconclusive: -48.4%"},
      {"compound": "CCC(=O)N(CC)c1nc(-c2cc(OC)ccc2OC)cs1", "activity change, negative = inhibition": "inconclusive: -46.3%"},
      {"compound": "CC(C)(C)Nc1nc(-c2ccc3c(c2)CCN3C(=O)C2CC2)cs1", "activity change, negative = inhibition": "inactive: 99.2%"},
      {"compound": "Cc1ccc(C(=O)CCNc2ccc(F)c(Cl)c2)o1", "activity change, negative = inhibition": "inactive: 61%"},
      {"compound": "COc1ccc(Oc2nccc(-c3ccc(Cl)cc3)n2)cc1", "activity change, negative = inhibition": "inactive: -36.6%"},
      {"compound": "COc1cccc(OC)c1C(=O)Nc1ccc(C)cc1C(=O)c1ccccc1", "activity change, negative = inhibition": "inconclusive: -48%"},
      {"compound": "O=C(CCc1ccc(O)c(O)c1)NNC(=S)Nc1ccc(Br)cc1Cl", "activity change, negative = inhibition": "inconclusive: -40.6%"},
      {"compound": "Cc1cc(C)nc(Nc2ccccc2Cl)n1", "activity change, negative = inhibition": "inconclusive: -41.1%"},
      {"compound": "CCOC(=O)c1cnc2ccc(OC)cc2c1NCCc1ccc(OC)c(OC)c1", "activity change, negative = inhibition": "inconclusive: -58.7%"},
      {"compound": "Cc1ccc(/C=N/n2cnc3sc(C)c(C)c3c2=O)o1", "activity change, negative = inhibition": "inconclusive: -52%"},
      {"compound": "Cc1c(OCC(=O)N(C)c2ccccc2)ccc2c3c(c(=O)oc12)CCC3", "activity change, negative = inhibition": "inactive: -11.5%"},
      {"compound": "Cc1ccc(-n2ncc(C(=O)Nc3ccc4c(c3)OCCO4)c2C2CCN(C(=O)OC(C)(C)C)CC2)cc1", "activity change, negative = inhibition": "inconclusive: 0%"},
      {"compound": "CCc1cccc(CC)c1NC(=O)C(CC)n1nc(C)n2c(cc3cc(C)ccc32)c1=O", "note": "(configuration not stated)", "activity change, negative = inhibition": "inactive: -0.865%"},
      {"compound": "CC(C)CN1CCCC(N2CCN(c3cccc(Cl)c3)CC2)C1", "note": "(configuration not stated)", "activity change, negative = inhibition": "inconclusive: -49.9%"},
      {"compound": "CN1CCN(C(=S)NC(=O)c2ccc(Br)cc2)CC1", "activity change, negative = inhibition": "inactive: -33.6%"},
      {"compound": "C/C=C/C(=O)OCC(=O)Nc1ccc(OC)c(OC)c1", "activity change, negative = inhibition": "inactive: 42.1%"},
      {"compound": "CCCn1c(SCC(=O)Nc2nnc(C)s2)nnc1C1CC1", "activity change, negative = inhibition": "inactive: -11%"},
      {"compound": "CCCCCCC[N+](CC)(CC)CCCCc1ccc(Cl)cc1", "activity change, negative = inhibition": "active: -101%"},
      {"compound": "CC(=O)N1CCN(c2ccc(NCc3cccc(C)c3)cc2)CC1", "activity change, negative = inhibition": "active: -76.7%"},
      {"compound": "CCn1cc2nc(SCc3ccccc3Cl)n(CCc3ccccc3)c(=O)c2n1", "activity change, negative = inhibition": "inactive: -14.7%"},
      {"compound": "O=C1C=CC(=O)c2c(O)c(N3CCN(CCO)CC3)c(Cl)c(O)c21", "activity change, negative = inhibition": "active: -99.9%"},
      {"compound": "COc1ccccc1N1CCN(C(=O)/C=C/c2c(Cl)nc3ccccn23)CC1", "activity change, negative = inhibition": "inconclusive: -46%"},
      {"compound": "O=C(Nc1ccccc1Cl)c1cc(S(=O)(=O)N2CCC3(CC2)OCCO3)ccc1F", "activity change, negative = inhibition": "inconclusive: -54.9%"},
      {"compound": "O=C(Nc1ccccc1)Nc1ccc(Nc2ccccc2)cc1", "activity change, negative = inhibition": "inactive: 39.8%"},
      {"compound": "CCOC(=O)C1CCCN(C(=O)c2cccc(NC(=O)c3nsc4ccccc34)c2)C1", "note": "(configuration not stated)", "activity change, negative = inhibition": "inactive: 69.6%"},
      {"compound": "CCc1cccc(NC(=O)c2cnn(-c3ccccc3)c2C)c1", "activity change, negative = inhibition": "inactive: 121%"},
      {"compound": "COc1ccc2nc(C)cc(SCC(=O)N3CCCCC3)c2c1", "activity change, negative = inhibition": "inconclusive: -42.4%"},
      {"compound": "Cc1ccc(NS(=O)(=O)c2ccccc2[N+](=O)[O-])cc1C", "activity change, negative = inhibition": "inconclusive: -47.6%"},
      {"compound": "Cc1nc2ccccc2nc1N/N=C/c1ccc(O)cc1O", "activity change, negative = inhibition": "active: -86.2%"},
      {"compound": "COc1ccc(NS(=O)(=O)c2ccc(C)c(C(=O)N(C)Cc3ccc(C)cc3)c2)cc1", "activity change, negative = inhibition": "inconclusive: -41%"},
      {"compound": "CCN1C(=O)c2cccc3c(S(=O)(=O)NCc4ccco4)ccc1c23", "activity change, negative = inhibition": "inactive: 128%"},
      {"compound": "COc1cccc(C(c2sc3ncnn3c2O)N2CCc3ccccc3C2)c1", "note": "(configuration not stated)", "activity change, negative = inhibition": "inconclusive: -47.3%"},
      {"compound": "O=C1CC(c2ccc3c(c2)OCCO3)Oc2ccc([N+](=O)[O-])cc21", "note": "(configuration not stated)", "activity change, negative = inhibition": "active: -76.6%"},
      {"compound": "Cc1cccc(C)c1NC(=O)CNC(=O)C(NC(=O)c1ccc(C(C)(C)C)cc1)C(C)C", "note": "(configuration not stated)", "activity change, negative = inhibition": "inconclusive: -42.6%"},
      {"compound": "COc1ccc(Cl)cc1S(=O)(=O)N(C)CC(=O)NCCCn1ccnc1", "activity change, negative = inhibition": "inactive: -12.9%"},
      {"compound": "O=C1Cc2cc(S(=O)(=O)Nc3cccc([N+](=O)[O-])c3)cc3c2N1CCC3", "activity change, negative = inhibition": "inconclusive: -42.6%"},
      {"compound": "Cc1ccc(S(=O)(=O)/N=C(/Nc2cccc3ccccc23)c2ccc(F)cc2)cc1", "activity change, negative = inhibition": "inconclusive: -47.9%"},
      {"compound": "CCn1c(=O)c2cc(C(=O)Nc3cc(C)on3)sc2c2ccccc21", "activity change, negative = inhibition": "inactive: -2.02%"},
      {"compound": "O=C(COc1ccc(Br)cc1)N1CCN(Cc2ccc3c(c2)OCO3)CC1", "activity change, negative = inhibition": "inactive: -7.45%"},
      {"compound": "COc1ccc(Nc2ccc(N3C(=O)CCCC3=O)cc2[N+](=O)[O-])cc1OC", "activity change, negative = inhibition": "inconclusive: -48.5%"},
      {"compound": "COc1ccc(Oc2c(C(F)(F)F)oc3cc(OCC(=O)O)ccc3c2=O)cc1", "activity change, negative = inhibition": "inactive: -35.9%"},
      {"compound": "CCOC(=O)c1cnc(-n2nc(C)cc2C)nc1Oc1ccc(C(=O)OC)cc1", "activity change, negative = inhibition": "inactive: 56.5%"},
      {"compound": "COc1ccccc1Cn1c(SCC(N)=O)nc2c(oc3ccccc32)c1=O", "activity change, negative = inhibition": "inconclusive: -53%"},
      {"compound": "O=C(Nc1ccc(F)cc1F)N1CCCN(c2ccc([N+](=O)[O-])cn2)CC1", "activity change, negative = inhibition": "inconclusive: -43.5%"},
      {"compound": "COc1ccc(/C=C2\\SC(=S)N(C(Cc3ccccc3)C(=O)O)C2=O)cc1", "note": "(configuration not stated)", "activity change, negative = inhibition": "inactive: 7.84%"},
      {"compound": "Cc1ccsc1CNc1ncnc2ccc(-c3c(C)noc3C)cc12", "activity change, negative = inhibition": "inconclusive: -48.1%"},
      {"compound": "CC1CCN(CCc2nc3ccccc3[nH]2)CC1", "activity change, negative = inhibition": "inconclusive: -41.2%"},
      {"compound": "C=C(C)Cc1c(C)c(C#N)c2nc3ccccc3n2c1NCCCN(C)C", "activity change, negative = inhibition": "inconclusive: -55.7%"},
      {"compound": "O=C(NNc1ccc(Cl)cc1)c1cccs1", "activity change, negative = inhibition": "inactive: 58.5%"}
    ]}
  ]
}
